According to US20060270596A1:
These are yes or no findings as the source states them, for the method shown. For some of these results: Binding seen in cells or lysates may run through a third protein. Some binding calls cover weakened binding; strength is not graded here. Where a sequence is shown, tags or fusion partners need not be part of it.

Amino acid sequences for entries named in this document (tags omitted). A change or cut given only in a name is not applied to a line headed by its entry. Residues count along the entry.
UniProt P13500: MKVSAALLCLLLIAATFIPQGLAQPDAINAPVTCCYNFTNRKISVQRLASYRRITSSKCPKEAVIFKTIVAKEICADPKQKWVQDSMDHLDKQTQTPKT
UniProt O00585: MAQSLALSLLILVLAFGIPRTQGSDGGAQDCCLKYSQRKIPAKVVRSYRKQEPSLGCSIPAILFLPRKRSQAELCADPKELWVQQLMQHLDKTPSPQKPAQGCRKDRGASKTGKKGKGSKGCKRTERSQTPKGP
UniProt P48061, residues 1-89: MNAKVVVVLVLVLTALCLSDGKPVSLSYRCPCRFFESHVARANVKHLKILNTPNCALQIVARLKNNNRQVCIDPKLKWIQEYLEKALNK
UniProt P10145: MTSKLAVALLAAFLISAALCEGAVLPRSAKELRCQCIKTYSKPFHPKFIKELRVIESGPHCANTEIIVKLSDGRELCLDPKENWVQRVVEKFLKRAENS
UniProt Q99616: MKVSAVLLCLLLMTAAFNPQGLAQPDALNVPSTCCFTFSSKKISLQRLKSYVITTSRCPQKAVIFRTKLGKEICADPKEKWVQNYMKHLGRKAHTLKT
UniProt Q9Y258, residues 24-94: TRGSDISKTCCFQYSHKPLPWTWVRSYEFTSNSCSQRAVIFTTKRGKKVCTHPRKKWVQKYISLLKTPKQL
UniProt P80098, residues 24-99: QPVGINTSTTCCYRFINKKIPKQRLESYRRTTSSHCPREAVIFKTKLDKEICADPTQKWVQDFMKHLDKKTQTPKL
UniProt P78556, residues 27-96: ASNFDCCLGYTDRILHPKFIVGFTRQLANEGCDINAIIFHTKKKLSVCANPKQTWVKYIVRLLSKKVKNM
UniProt P80075, residues 24-99: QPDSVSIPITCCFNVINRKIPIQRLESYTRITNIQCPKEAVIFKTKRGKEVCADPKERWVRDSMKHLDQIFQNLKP
UniProt Q99731: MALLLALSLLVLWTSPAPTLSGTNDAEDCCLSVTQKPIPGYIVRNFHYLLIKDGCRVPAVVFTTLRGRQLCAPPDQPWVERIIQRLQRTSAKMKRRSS

Assays:
[1] = biological target: T1, human chemokine MIG/CXCL9, mature form (amino acids 23-125) (human) (UniProt Q07325); assay: GST pull-down, 35S-labelled in vitro translated chemokine
T1 sequence: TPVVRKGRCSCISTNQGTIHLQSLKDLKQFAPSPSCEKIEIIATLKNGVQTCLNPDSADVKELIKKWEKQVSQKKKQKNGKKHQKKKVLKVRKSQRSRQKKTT

[2] = biological target: chemokine CCL2 (UniProt P13500); assay: as above
[3] = biological target: human chemokine SLC/CCL21, mature form (amino acids 24-134) (human) (UniProt O00585); assay: as above
[4] = biological target: chemokine CXCL12 (UniProt P48061); assay: as above
[5] = biological target: T2, chemokine CXCL11 (UniProt O14625); assay: GST pull-down, 35S-labelled in vitro translated molecule
T2 sequence (looked up): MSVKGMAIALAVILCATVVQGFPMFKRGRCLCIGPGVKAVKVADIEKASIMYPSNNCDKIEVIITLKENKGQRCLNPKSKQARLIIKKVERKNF

[6] = biological target: chemokine CXCL8 (UniProt P10145); assay: as above
[7] = biological target: human chemokine SLC/CCL21, mature form (amino acids 24-134) (human) (UniProt O00585); assay: as above
[8] = biological target: chemokine CCL13 (UniProt Q99616); assay: as above
[9] = biological target: T3, THAP1-C3 deletion mutant (amino acids 143-213) (human) (UniProt Q9NVV9); assay: as above
T3 sequence: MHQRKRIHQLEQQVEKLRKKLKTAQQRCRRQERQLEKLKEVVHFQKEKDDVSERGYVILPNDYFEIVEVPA

[10] = biological target: T2, chemokine CXCL11; assay: GST pull-down: in vitro translated 35S-labelled protein on the GST fusion immobilised on glutathione sepharose, SDS-PAGE, fluorography
[11] = biological target: human chemokine SLC/CCL21, mature form (amino acids 24-134) (human) (UniProt O00585); assay: as above
[12] = biological target: chemokine CCL13 (UniProt Q99616); assay: as above
[13] = biological target: T3, THAP1-C3 deletion mutant (amino acids 143-213) (human); assay: as above
[14] = biological target: T1, human chemokine MIG/CXCL9, mature form (amino acids 23-125) (human); assay: GST pull-down: in vitro translated 35S-labelled chemokine or cytokine on the GST fusion immobilised on glutathione sepharose, SDS-PAGE, fluorography
[15] = biological target: chemokine CCL2 (UniProt P13500); assay: as above
[16] = biological target: human chemokine SLC/CCL21, mature form (amino acids 24-134) (human) (UniProt O00585); assay: as above
[17] = biological target: chemokine CXCL12 (UniProt P48061); assay: as above
[18] = biological target: T2, chemokine CXCL11; assay: in vitro pull-down of 35S-labelled in vitro translated ligand (as Example 33); grade from percentage bound of total labelled ligand
[19] = biological target: chemokine CCL26 (UniProt Q9Y258); assay: as above
[20] = biological target: chemokine CCL7 (UniProt P80098); assay: as above
[21] = biological target: T4, chemokine CXCL14 (UniProt O95715); assay: as above
T4 sequence (looked up): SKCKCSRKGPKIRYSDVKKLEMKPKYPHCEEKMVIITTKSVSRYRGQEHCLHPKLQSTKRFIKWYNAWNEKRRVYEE

[22] = biological target: T5, chemokine CXCL2 (UniProt P19875); assay: as above
T5 sequence (looked up): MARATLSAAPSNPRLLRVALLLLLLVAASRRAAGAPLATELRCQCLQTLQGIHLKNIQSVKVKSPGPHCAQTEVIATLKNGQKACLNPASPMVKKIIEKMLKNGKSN

[23] = biological target: T1, human chemokine MIG/CXCL9, mature form (amino acids 23-125) (human); assay: as above
[24] = biological target: chemokine CCL20 (UniProt P78556); assay: as above
[25] = biological target: T6, chemokine CXCL3 (UniProt P19876); assay: as above
T6 sequence (looked up): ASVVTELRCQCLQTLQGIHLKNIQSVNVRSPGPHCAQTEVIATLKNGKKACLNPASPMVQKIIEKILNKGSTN

[26] = biological target: human chemokine SLC/CCL21, mature form (amino acids 24-134) (human) (UniProt O00585); assay: as above
[27] = biological target: chemokine CCL13 (UniProt Q99616); assay: as above
[28] = biological target: chemokine CCL8 (UniProt P80075); assay: as above
[29] = biological target: T7, chemokine CCL18 (UniProt P55774); assay: as above
T7 sequence (looked up): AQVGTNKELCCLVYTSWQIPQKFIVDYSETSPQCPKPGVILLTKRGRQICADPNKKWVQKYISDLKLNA

[30] = biological target: T8, chemokine CCL1 (UniProt P22362); assay: as above
T8 sequence (looked up): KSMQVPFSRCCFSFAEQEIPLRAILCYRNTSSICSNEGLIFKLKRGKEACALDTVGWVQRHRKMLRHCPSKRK

[31] = biological target: T9, chemokine CCL14 (UniProt Q16627); assay: as above
T9 sequence (looked up): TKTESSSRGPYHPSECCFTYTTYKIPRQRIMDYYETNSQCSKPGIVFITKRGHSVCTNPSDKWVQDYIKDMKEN

[32] = biological target: T10, chemokine CXCL13 (UniProt O43927); assay: as above
T10 sequence (looked up): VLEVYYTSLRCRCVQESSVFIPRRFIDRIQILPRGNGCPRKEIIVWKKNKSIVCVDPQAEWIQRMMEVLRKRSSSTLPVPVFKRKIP

[33] = biological target: human chemokine ELC/CCL19, mature form (amino acids 22-98) (human) (UniProt Q99731); assay: as above
[34] = biological target: chemokine CXCL12 (UniProt P48061); assay: as above

B1: GST-THAP3 181-284 (chemokine-binding domain of THAP3) (protein, not shown: a dimerising Fc or GST; small tags and cut ends)
chain: LPPNAEGHVKQVSPRRPQATEAVGRPTGPAGLRRTPNKQPSDHSYALLDLDSLKKKLFLTLKENEKLRKRLQAQRLVMRRMSSRLRACKGHQGLQARLGPEQQS
For B1, which binding [1] is on record?
The binding was “binds”.

And the binding [2]?
The binding was “binds”.

And the binding [3]?
The binding was “binds”.

What about the binding [4] of the same binder?
The binding was “binds”.

What about the binding [5] of the same binder?
Its binding is “binds”.

And the binding [6]?
The binding was “no binding”.

What about the binding [7] of the same binder?
The binding was “binds”.

And the binding [8]?
The binding was “binds”.

What about the binding [9] of the same binder?
The binding was “binds”.

And the binding [10]?
Its binding is “binds”.

What about the binding [11] of the same binder?
Its binding is “binds”.

What about the binding [12] of the same binder?
The binding was “binds”.

And the binding [13]?
Its binding is “binds”.

And the binding [14]?
Its binding is “binds”.

And the binding [15]?
Its binding is “binds”.

What about the binding [16] of the same binder?
Its binding is “binds”.

What about the binding [17] of the same binder?
The binding was “binds”.

B2: THAP1 chemokine-binding domain/IgG1-Fc fusion constructed as described in Example 18B (THAP1 amino acids 140-213 fused to human IgG1-Fc) (Fc fusion, not shown: a dimerising Fc or GST)
chain: EDTMHQRKRIHQLEQQVEKLRKKLKTAQQRCRRQERQLEKLKEVVHFQKEKDDVSERGYVILPNDYFEIVEVPA
How did the binding [18] turn out when B2 was run?
The binding was “binds”.

What about the binding [19] of the same binder?
Its binding is “binds”.

What about the binding [20] of the same binder?
Its binding is “binds”.

And the binding [21]?
Its binding is “binds”.

What about the binding [22] of the same binder?
Its binding is “binds”.

What about the binding [23] of the same binder?
Its binding is “binds”.

And the binding [24]?
The binding was “binds”.

And the binding [25]?
The binding was “binds”.

What about the binding [26] of the same binder?
Its binding is “binds”.

What about the binding [27] of the same binder?
Its binding is “binds”.

What about the binding [28] of the same binder?
Its binding is “binds”.

What about the binding [29] of the same binder?
Its binding is “binds”.

What about the binding [30] of the same binder?
The binding was “binds”.

What about the binding [31] of the same binder?
The binding was “binds”.

And the binding [32]?
The binding was “binds”.

What about the binding [33] of the same binder?
Its binding is “binds”.

And the binding [34]?
The binding was “binds”.
